This data set addresses DnaK (Escherichia coli (K-12 MG1655)) (UniProt P0A6Y8). In words: EMSA. As to conditions: mixed with fork; EMSA: 20 nM Cy5 fork, 20 mM Tris pH 8.0, 0.1 mg/ml BSA, 7% glycerol (25% after DnaK addition); proteins diluted in 20 mM Tris pH 8.0, 100 mM NaCl, 1 mM DTT; recombinant protein; protein details: N-terminal 6xHis; label: 5'-Cy5; single-stranded DNA. On the technique in general: In EMSA bound probe runs differently from free probe, usually more slowly.

Protein sequences, listed by entry. Tags and fused reporters are not part of them. Lines headed by an entry give the natural chain unless they say otherwise; changes in a name come on top.
UniProt P0A6Y8: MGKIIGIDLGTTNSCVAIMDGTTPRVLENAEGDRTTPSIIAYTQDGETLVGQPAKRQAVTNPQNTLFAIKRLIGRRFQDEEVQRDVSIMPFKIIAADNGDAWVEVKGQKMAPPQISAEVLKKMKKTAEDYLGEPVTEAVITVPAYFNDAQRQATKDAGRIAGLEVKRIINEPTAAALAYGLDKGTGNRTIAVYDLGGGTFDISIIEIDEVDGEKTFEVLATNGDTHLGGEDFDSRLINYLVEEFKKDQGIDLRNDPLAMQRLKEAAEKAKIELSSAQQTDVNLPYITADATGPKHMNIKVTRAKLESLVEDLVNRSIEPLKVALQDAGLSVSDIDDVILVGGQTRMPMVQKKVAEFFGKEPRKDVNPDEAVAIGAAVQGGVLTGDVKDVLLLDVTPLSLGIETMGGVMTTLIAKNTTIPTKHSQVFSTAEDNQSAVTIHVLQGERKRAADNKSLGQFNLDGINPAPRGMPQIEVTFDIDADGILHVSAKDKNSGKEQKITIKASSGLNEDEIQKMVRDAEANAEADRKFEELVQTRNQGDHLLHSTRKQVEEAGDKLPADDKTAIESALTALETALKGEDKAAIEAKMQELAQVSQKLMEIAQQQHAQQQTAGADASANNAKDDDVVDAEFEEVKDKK

Construct, isoform or probe ends are uncertain for at least one entry. Negatives hold for the conditions tested.

As to “CAACGTCATAGACGATTACATTGCTACATGGAGCTGTCTAGAGGATCCGA [Cy5-ssDNA (MW14)]”, the binding result is on record as “no binding”.
